Experimental data: the supplement of paper PMC7661543
The effect of the compound repeats well; differences between the knockouts mostly do not.

Test system: HCC-38
Experiment: relative cell number vs DMSO control (72 h) (% of DMSO); higher = less growth inhibition (more cells)
Experimental: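 QMAP-Seq: a pool of 5 breast cancer cell lines (ZR-75-1, SKBR3, HCC-38, MDA-MB-231, BT-20), each carrying 12 doxycycline-inducible Cas9 sgRNA perturbations (11 knockouts plus non-targeting sgNT), was treated with compounds for 72 h at four 10-fold doses (10 nM-10 uM or 1 nM-1 uM range). Barcodes were amplified and sequenced, and cell number was interpolated from 293T spike-in standard curves. The result is expressed as % of the median of DMSO wells. Two biological replicates.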

COc1cc(CCc2cc(NC(=O)c3ccc(N4CC(C)NC(C)C4)cc3)n[nH]2)cc(OC)c1 (configuration not stated) [AZD4547]
Details | relative cell number
sgRNA knockout: sgATF3, 10 nM | 87.4
sgRNA knockout: sgATF3, 100 nM | 67.2
sgRNA knockout: sgATF3, 1000 nM | 54.5
sgRNA knockout: sgATF3, 10000 nM | 43.9
sgRNA knockout: sgATF4, 10 nM | 88.4
sgRNA knockout: sgATF4, 100 nM | 67
sgRNA knockout: sgATF4, 1000 nM | 54.4
sgRNA knockout: sgATF4, 10000 nM | 46.4
sgRNA knockout: sgATF6, 10 nM | 81.2
sgRNA knockout: sgATF6, 100 nM | 52.6
sgRNA knockout: sgATF6, 1000 nM | 57.2
sgRNA knockout: sgATF6, 10000 nM | 35.53
sgRNA knockout: sgATG7, 10 nM | 85.8
sgRNA knockout: sgATG7, 100 nM | 70.2
sgRNA knockout: sgATG7, 1000 nM | 55.2
sgRNA knockout: sgATG7, 10000 nM | 41
sgRNA knockout: sgERN1, 10 nM | 87.1
sgRNA knockout: sgERN1, 100 nM | 64.1
sgRNA knockout: sgERN1, 1000 nM | 56.5
sgRNA knockout: sgERN1, 10000 nM | 42.6
sgRNA knockout: sgHSF1, 10 nM | 85.3
sgRNA knockout: sgHSF1, 100 nM | 70.7
sgRNA knockout: sgHSF1, 1000 nM | 79.9
sgRNA knockout: sgHSF1, 10000 nM | 37.8
sgRNA knockout: sgHSF2, 10 nM | 86.4
sgRNA knockout: sgHSF2, 100 nM | 69.9
sgRNA knockout: sgHSF2, 1000 nM | 57.7
sgRNA knockout: sgHSF2, 10000 nM | 43.7
sgRNA knockout: sgKEAP1, 10 nM | 76.9
sgRNA knockout: sgKEAP1, 100 nM | 67.2
sgRNA knockout: sgKEAP1, 1000 nM | 61.4
sgRNA knockout: sgKEAP1, 10000 nM | 33.5
sgRNA knockout: sgNFE2L2, 10 nM | 87.49
sgRNA knockout: sgNFE2L2, 100 nM | 63.3
sgRNA knockout: sgNFE2L2, 1000 nM | 52.3
sgRNA knockout: sgNFE2L2, 10000 nM | 44.6
sgRNA knockout: sgSLC35F2, 10 nM | 93.09
sgRNA knockout: sgSLC35F2, 100 nM | 70.3
sgRNA knockout: sgSLC35F2, 1000 nM | 62.44
sgRNA knockout: sgSLC35F2, 10000 nM | 40.9
sgRNA knockout: sgXBP1, 10 nM | 88.8
sgRNA knockout: sgXBP1, 100 nM | 60.6
sgRNA knockout: sgXBP1, 1000 nM | 59.5
sgRNA knockout: sgXBP1, 10000 nM | 42.4

Cn1c(CCCC(=O)O)nc2cc(N(CCCl)CCCl)ccc21 [Bendamustine]
Details | relative cell number
sgRNA knockout: sgATF3, 10 nM | 112
sgRNA knockout: sgATF3, 100 nM | 105
sgRNA knockout: sgATF3, 1000 nM | 122
sgRNA knockout: sgATF3, 10000 nM | 134
sgRNA knockout: sgATF4, 10 nM | 113
sgRNA knockout: sgATF4, 100 nM | 96
sgRNA knockout: sgATF4, 1000 nM | 122
sgRNA knockout: sgATF4, 10000 nM | 112.7
sgRNA knockout: sgATF6, 10 nM | 116
sgRNA knockout: sgATF6, 100 nM | 125
sgRNA knockout: sgATF6, 1000 nM | 120.9
sgRNA knockout: sgATF6, 10000 nM | 145
sgRNA knockout: sgATG7, 10 nM | 114
sgRNA knockout: sgATG7, 100 nM | 104
sgRNA knockout: sgATG7, 1000 nM | 111
sgRNA knockout: sgATG7, 10000 nM | 129
sgRNA knockout: sgERN1, 10 nM | 106
sgRNA knockout: sgERN1, 100 nM | 112
sgRNA knockout: sgERN1, 1000 nM | 110
sgRNA knockout: sgERN1, 10000 nM | 137
sgRNA knockout: sgHSF1, 10 nM | 134
sgRNA knockout: sgHSF1, 100 nM | 131
sgRNA knockout: sgHSF1, 1000 nM | 120
sgRNA knockout: sgHSF1, 10000 nM | 191
sgRNA knockout: sgHSF2, 10 nM | 123
sgRNA knockout: sgHSF2, 100 nM | 118
sgRNA knockout: sgHSF2, 1000 nM | 128
sgRNA knockout: sgHSF2, 10000 nM | 156
sgRNA knockout: sgKEAP1, 10 nM | 126
sgRNA knockout: sgKEAP1, 100 nM | 156
sgRNA knockout: sgKEAP1, 1000 nM | 125
sgRNA knockout: sgKEAP1, 10000 nM | 202
sgRNA knockout: sgNFE2L2, 10 nM | 114
sgRNA knockout: sgNFE2L2, 100 nM | 101
sgRNA knockout: sgNFE2L2, 1000 nM | 126
sgRNA knockout: sgNFE2L2, 10000 nM | 108
sgRNA knockout: sgSLC35F2, 10 nM | 113
sgRNA knockout: sgSLC35F2, 100 nM | 104
sgRNA knockout: sgSLC35F2, 1000 nM | 114
sgRNA knockout: sgSLC35F2, 10000 nM | 116
sgRNA knockout: sgXBP1, 10 nM | 111
sgRNA knockout: sgXBP1, 100 nM | 103
sgRNA knockout: sgXBP1, 1000 nM | 128
sgRNA knockout: sgXBP1, 10000 nM | 123.8

C=C(C)[C@@H]1CC[C@]2(C(=O)O)CC[C@]3(C)[C@H](CC[C@@H]4[C@@]5(C)CC[C@H](O)C(C)(C)[C@@H]5CC[C@]43C)[C@@H]12 [BetulinicAcid]
Details | relative cell number
sgRNA knockout: sgATF3, 10 nM | 104
sgRNA knockout: sgATF3, 100 nM | 85.6
sgRNA knockout: sgATF3, 1000 nM | 92.6
sgRNA knockout: sgATF3, 10000 nM | 95.4
sgRNA knockout: sgATF4, 10 nM | 100
sgRNA knockout: sgATF4, 100 nM | 83.1
sgRNA knockout: sgATF4, 1000 nM | 99.6
sgRNA knockout: sgATF4, 10000 nM | 86.2
sgRNA knockout: sgATF6, 10 nM | 112
sgRNA knockout: sgATF6, 100 nM | 91.22
sgRNA knockout: sgATF6, 1000 nM | 91.6
sgRNA knockout: sgATF6, 10000 nM | 110
sgRNA knockout: sgATG7, 10 nM | 92.4
sgRNA knockout: sgATG7, 100 nM | 88.3
sgRNA knockout: sgATG7, 1000 nM | 95.6
sgRNA knockout: sgATG7, 10000 nM | 93.8
sgRNA knockout: sgERN1, 10 nM | 107
sgRNA knockout: sgERN1, 100 nM | 89.6
sgRNA knockout: sgERN1, 1000 nM | 98.8
sgRNA knockout: sgERN1, 10000 nM | 98.4
sgRNA knockout: sgHSF1, 10 nM | 91.1
sgRNA knockout: sgHSF1, 100 nM | 91.9
sgRNA knockout: sgHSF1, 1000 nM | 79
sgRNA knockout: sgHSF1, 10000 nM | 105
sgRNA knockout: sgHSF2, 10 nM | 95
sgRNA knockout: sgHSF2, 100 nM | 96.3
sgRNA knockout: sgHSF2, 1000 nM | 83.9
sgRNA knockout: sgHSF2, 10000 nM | 92.6
sgRNA knockout: sgKEAP1, 10 nM | 86.6
sgRNA knockout: sgKEAP1, 100 nM | 95.3
sgRNA knockout: sgKEAP1, 1000 nM | 86.9
sgRNA knockout: sgKEAP1, 10000 nM | 79.6
sgRNA knockout: sgNFE2L2, 10 nM | 106
sgRNA knockout: sgNFE2L2, 100 nM | 78.4
sgRNA knockout: sgNFE2L2, 1000 nM | 106
sgRNA knockout: sgNFE2L2, 10000 nM | 87.3
sgRNA knockout: sgSLC35F2, 10 nM | 105
sgRNA knockout: sgSLC35F2, 100 nM | 83.3
sgRNA knockout: sgSLC35F2, 1000 nM | 99.7
sgRNA knockout: sgSLC35F2, 10000 nM | 97.1
sgRNA knockout: sgXBP1, 10 nM | 103
sgRNA knockout: sgXBP1, 100 nM | 82.4
sgRNA knockout: sgXBP1, 1000 nM | 98.7
sgRNA knockout: sgXBP1, 10000 nM | 91.8
